Results are given in words; binding and its absence hold for the method and conditions named. Binding seen in cells or lysates may run through a third protein. These calls come from enrichment with a bait or labelling near it, and not all partners need be listed. Tags and fused reporters may be left off the sequences shown.

Sequences of proteins named here, by UniProt entry; tags and fusion partners are left off.
UniProt P46379: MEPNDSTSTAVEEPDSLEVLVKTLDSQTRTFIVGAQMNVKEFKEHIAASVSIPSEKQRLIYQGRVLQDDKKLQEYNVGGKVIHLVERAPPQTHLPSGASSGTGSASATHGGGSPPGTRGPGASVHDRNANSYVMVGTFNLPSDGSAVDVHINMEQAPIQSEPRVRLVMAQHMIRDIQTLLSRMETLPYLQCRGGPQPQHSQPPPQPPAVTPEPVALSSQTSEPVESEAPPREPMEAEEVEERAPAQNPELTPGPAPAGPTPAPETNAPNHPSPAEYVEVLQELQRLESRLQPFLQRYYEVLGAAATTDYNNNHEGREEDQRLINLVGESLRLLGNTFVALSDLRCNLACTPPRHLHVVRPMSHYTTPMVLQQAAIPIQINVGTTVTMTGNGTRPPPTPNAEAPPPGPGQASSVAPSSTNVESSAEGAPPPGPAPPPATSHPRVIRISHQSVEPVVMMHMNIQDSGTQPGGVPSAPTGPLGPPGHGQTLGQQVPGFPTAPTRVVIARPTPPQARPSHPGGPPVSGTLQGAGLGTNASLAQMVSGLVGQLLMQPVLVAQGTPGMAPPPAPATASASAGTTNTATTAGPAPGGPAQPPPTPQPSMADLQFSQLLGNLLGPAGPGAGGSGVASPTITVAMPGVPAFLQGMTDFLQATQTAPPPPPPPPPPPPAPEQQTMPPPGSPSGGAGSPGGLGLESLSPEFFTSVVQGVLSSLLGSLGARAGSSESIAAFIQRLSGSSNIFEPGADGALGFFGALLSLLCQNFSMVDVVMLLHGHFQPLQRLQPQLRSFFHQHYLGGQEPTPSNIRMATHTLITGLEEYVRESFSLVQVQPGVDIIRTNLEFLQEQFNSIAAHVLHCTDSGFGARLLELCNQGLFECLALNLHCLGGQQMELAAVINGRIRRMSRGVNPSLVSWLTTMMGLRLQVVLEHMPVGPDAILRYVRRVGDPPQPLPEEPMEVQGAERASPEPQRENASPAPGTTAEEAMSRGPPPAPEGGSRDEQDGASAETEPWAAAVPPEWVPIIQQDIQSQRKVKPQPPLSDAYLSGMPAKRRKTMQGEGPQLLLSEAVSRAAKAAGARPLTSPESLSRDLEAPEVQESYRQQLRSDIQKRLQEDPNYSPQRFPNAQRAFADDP
UniProt O43681: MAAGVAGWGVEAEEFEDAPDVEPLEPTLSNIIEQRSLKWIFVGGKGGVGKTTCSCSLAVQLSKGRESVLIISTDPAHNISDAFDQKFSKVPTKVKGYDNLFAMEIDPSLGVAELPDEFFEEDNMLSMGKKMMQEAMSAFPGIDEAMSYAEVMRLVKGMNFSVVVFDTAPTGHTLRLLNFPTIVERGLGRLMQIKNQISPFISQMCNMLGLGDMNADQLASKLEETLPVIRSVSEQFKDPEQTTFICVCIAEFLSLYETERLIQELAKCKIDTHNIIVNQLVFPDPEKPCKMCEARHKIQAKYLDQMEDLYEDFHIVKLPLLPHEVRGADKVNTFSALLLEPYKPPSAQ

The chains are these.
B1: EMC1 (protein, UniProt Q8N766 23-993)
chain: YEDQVGKFDWRQQYVGKVKFASLEFSPGSKKLVVATEKNVIAALNSRTGEILWRHVDKGTAEGAVDAMLLHGQDVITVSNGGRIMRSWETNIGGLNWEITLDSGSFQALGLVGLQESVRYIAVLKKTTLALHHLSSGHLKWVEHLPESDSIHYQMVYSYGSGVVWALGVVPFSHVNIVKFNVEDGEIVQQVRVSTPWLQHLSGACGVVDEAVLVCPDPSSRSLQTLALETEWELRQIPLQSLDLEFGSGFQPRVLPTQPNPVDASRAQFFLHLSPSHYALLQYHYGTLSLLKNFPQTALVSFATTGEKTVAAVMACRNEVQKSSSSEDGSMGSFSEKSSSKDSLACFNQTYTINLYLVETGRRLLDTTITFSLEQSGTRPERLYIQVFLKKDDSVGYRALVQTEDHLLLFLQQLAGKVVLWSREESLAEVVCLEMVDLPLTGAQAELEGEFGKKADGLLGMFLKRLSSQLILLQAWTSHLWKMFYDARKPRSQIKNEINIDTLARDEFNLQKMMVMVTASGKLFGIESSSGTILWKQYLPNVKPDSSFKLMVQRTTAHFPHPPQCTLLVKDKESGMSSLYVFNPIFGKWSQVAPPVLKRPILQSLLLPVMDQDYAKVLLLIDDEYKVTAFPATRNVLRQLHELAPSIFFYLVDAEQGRLCGYRLRKDLTTELSWELTIPPEVQRIVKVKGKRSSEHVHSQGRVMGDRSVLYKSLNPNLLAVVTESTDAHHERTFIGIFLIDGVTGRIIHSSVQKKAKGPVHIVHSENWVVYQYWNTKARRNEFTVLELYEGTEQYNATAFSSLDRPQLPQVLQQSYIFPSSISAMEATITERGITSRHLLIGLPSGAILSLPKALLDPRRPEIPTEQSREENLIPYSPDVQIHAERFINYNQTVSRMRGIYTAPSGLESTCLVVAYGLDIYQTRVYPSKQFDVLKDDYDYVLISSVLFGLVFATMITKRLAQVKLLNRAWR

The test has as its target T1, EGFP-TREX1^WT (human) (UniProt Q9NSU2).
T1 sequence: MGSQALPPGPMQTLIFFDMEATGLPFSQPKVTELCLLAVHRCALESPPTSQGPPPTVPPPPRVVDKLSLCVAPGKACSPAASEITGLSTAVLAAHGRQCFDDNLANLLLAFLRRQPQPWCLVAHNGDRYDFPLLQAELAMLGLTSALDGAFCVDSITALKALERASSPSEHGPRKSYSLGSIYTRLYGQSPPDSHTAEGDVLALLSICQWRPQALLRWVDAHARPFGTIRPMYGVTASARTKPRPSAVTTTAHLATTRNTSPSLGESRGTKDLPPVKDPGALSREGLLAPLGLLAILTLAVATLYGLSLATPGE
Description: affinity purification with mass spectrometry; GFP-Trap agarose on RIPA lysates of tetracycline-induced (24 h) stable HeLa^FTO lines, lysate and beads 2 h at 4°C; relative quantification by LC-MS-MS, TREX1^V235fs versus TREX1^WT; three independent experiments.
On to BAG6 (from UniProt P46379 1-1132), for which the binding result is “binds”.
Then “Guided Entry of Tail-Anchored Proteins Factor 3 (from UniProt O43681 1-348)”, with “binds”; and B1, with “binds”.

Values taken from PMC12316019.
